Results from the supplement of paper PMC10849652.
This is one part of the list.

Sequences of proteins named here, by UniProt entry; tags and fusion partners are left off. A change or cut given only in a name is not applied to a line headed by its entry.
UniProt Q7Z3K6: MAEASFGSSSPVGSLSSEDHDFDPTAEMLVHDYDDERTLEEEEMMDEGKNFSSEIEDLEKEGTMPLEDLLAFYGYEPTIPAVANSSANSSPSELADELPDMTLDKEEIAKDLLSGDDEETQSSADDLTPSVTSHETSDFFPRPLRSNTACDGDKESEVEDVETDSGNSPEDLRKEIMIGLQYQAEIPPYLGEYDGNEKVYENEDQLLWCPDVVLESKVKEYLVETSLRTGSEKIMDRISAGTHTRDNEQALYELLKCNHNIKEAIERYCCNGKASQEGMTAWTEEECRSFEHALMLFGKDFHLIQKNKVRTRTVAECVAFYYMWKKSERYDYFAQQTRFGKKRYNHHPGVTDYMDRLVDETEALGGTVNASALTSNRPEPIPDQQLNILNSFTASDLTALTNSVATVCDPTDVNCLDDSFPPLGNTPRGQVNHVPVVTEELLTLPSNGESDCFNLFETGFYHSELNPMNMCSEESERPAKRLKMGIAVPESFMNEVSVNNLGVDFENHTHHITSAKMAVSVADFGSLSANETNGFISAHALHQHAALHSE
UniProt Q00013: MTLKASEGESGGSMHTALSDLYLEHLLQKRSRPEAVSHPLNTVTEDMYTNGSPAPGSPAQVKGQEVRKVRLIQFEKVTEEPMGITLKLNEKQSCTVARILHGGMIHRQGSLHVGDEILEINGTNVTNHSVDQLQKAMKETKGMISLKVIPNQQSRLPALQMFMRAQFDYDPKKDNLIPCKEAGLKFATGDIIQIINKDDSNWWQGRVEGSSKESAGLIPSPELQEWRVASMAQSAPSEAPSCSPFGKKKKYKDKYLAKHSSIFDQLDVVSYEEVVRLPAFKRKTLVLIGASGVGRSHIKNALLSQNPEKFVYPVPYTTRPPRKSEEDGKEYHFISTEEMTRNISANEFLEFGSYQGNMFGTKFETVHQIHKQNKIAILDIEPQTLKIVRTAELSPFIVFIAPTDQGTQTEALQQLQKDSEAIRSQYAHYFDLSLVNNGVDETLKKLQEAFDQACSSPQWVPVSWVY
UniProt Q13015: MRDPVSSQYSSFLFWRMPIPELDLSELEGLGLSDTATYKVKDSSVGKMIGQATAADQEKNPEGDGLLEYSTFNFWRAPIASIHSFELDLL
UniProt P39210: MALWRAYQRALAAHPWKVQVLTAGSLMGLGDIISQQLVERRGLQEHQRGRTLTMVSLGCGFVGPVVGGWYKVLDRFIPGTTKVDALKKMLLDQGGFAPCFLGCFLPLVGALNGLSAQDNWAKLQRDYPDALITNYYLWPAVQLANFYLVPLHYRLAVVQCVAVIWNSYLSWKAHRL
UniProt Q9BPX6: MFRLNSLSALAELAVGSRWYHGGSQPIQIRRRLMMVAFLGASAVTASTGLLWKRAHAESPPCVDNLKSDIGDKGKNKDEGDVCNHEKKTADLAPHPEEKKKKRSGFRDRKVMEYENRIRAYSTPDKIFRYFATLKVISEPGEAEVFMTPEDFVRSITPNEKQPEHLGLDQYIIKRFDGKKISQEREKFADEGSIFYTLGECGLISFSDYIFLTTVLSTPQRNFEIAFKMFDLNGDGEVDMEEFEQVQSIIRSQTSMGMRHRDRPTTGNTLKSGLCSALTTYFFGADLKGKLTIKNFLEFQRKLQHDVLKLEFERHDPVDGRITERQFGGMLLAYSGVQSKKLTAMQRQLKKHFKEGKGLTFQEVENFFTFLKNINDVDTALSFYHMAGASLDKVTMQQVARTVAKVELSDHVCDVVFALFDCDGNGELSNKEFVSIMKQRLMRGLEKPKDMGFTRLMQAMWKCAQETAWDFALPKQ
UniProt Q9H081: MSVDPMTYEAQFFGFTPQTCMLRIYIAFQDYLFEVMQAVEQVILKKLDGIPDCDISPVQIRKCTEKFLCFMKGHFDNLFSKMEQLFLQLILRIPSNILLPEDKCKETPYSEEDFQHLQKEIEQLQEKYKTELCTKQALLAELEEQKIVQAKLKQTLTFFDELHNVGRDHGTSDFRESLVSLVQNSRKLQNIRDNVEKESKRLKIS
UniProt Q9NPA3, whole entry, looked up: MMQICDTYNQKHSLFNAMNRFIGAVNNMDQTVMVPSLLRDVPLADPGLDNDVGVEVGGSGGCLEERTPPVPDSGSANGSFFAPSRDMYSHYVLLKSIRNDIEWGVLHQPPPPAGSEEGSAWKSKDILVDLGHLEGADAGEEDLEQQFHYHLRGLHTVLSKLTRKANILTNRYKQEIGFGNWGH
UniProt Q9Y3A3: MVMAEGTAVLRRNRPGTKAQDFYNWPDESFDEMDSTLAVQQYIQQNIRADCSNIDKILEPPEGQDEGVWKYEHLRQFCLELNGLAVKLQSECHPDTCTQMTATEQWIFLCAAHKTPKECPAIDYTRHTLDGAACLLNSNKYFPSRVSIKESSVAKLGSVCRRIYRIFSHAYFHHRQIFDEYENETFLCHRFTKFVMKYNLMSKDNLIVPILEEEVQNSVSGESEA
UniProt O14880: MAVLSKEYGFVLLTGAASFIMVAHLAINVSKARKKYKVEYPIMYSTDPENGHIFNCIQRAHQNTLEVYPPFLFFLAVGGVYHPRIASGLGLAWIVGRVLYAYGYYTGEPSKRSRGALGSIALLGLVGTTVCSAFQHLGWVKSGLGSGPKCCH
UniProt Q9Y605: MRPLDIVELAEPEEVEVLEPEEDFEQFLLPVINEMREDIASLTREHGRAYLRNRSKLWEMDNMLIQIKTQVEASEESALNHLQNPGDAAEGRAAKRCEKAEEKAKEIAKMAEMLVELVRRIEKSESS
UniProt Q5JRA6: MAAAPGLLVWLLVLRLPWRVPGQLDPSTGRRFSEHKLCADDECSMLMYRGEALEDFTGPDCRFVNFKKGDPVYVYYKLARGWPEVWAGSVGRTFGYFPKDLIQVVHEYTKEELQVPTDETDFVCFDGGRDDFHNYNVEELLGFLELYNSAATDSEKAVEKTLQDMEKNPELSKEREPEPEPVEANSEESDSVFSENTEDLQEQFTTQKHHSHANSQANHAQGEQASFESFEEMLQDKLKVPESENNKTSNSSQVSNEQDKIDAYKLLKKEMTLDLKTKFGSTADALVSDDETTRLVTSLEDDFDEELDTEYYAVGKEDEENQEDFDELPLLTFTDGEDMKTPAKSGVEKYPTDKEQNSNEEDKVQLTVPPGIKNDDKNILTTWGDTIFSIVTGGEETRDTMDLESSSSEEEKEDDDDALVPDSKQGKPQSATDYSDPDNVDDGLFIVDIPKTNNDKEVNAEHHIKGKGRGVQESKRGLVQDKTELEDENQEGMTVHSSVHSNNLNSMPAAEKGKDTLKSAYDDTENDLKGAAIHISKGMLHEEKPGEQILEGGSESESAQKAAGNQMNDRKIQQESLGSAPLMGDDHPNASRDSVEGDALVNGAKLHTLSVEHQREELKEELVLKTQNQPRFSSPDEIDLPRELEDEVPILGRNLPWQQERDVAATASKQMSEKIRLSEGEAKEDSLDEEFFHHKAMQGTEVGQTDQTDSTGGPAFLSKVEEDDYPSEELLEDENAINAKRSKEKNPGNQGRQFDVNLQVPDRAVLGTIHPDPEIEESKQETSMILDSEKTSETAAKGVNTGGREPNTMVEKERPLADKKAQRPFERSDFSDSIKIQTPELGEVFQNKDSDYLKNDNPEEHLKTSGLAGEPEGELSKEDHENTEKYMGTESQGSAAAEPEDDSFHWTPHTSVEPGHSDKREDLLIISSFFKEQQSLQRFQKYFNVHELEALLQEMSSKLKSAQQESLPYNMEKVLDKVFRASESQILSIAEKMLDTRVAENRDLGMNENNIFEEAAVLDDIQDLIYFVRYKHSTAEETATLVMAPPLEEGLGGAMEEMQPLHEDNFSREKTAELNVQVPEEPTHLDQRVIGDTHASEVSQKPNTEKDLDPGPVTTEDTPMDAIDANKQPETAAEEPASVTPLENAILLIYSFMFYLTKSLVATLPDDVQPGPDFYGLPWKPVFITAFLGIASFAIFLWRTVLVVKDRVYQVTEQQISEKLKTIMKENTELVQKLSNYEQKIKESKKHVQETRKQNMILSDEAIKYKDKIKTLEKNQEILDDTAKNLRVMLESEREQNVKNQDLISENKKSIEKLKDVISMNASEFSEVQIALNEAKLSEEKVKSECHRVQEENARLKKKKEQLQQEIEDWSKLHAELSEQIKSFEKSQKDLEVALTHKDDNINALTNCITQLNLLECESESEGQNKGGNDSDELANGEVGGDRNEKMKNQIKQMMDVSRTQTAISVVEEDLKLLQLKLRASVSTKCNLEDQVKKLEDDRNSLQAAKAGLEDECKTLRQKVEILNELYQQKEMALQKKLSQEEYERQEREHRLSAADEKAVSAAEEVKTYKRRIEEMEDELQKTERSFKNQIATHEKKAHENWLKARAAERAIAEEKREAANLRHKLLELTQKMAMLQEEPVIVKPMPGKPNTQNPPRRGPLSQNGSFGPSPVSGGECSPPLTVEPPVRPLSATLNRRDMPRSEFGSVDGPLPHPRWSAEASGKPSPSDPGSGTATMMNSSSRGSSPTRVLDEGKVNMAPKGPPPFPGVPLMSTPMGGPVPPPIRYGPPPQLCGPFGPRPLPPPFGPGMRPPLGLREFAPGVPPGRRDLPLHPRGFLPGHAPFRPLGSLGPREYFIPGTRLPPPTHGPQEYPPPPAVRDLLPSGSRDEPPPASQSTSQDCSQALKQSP
UniProt Q8N3R9: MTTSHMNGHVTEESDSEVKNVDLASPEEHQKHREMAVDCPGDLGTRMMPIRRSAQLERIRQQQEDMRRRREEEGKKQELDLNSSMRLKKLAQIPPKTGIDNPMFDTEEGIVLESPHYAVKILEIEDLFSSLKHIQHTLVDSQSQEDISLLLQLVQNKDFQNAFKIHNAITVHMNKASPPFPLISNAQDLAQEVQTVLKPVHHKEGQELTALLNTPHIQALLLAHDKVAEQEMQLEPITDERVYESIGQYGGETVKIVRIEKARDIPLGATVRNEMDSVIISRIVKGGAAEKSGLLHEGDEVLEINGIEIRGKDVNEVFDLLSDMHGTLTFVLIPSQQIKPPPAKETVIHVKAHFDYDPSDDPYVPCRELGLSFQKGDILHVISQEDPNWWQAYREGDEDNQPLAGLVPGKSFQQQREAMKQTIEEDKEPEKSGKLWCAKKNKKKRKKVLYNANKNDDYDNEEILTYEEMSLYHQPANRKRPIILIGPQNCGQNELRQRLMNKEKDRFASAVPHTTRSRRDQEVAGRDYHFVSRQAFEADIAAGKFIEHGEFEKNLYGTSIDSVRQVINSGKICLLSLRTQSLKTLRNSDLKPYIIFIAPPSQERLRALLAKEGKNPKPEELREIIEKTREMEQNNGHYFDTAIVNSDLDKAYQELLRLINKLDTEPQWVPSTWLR
UniProt P22033: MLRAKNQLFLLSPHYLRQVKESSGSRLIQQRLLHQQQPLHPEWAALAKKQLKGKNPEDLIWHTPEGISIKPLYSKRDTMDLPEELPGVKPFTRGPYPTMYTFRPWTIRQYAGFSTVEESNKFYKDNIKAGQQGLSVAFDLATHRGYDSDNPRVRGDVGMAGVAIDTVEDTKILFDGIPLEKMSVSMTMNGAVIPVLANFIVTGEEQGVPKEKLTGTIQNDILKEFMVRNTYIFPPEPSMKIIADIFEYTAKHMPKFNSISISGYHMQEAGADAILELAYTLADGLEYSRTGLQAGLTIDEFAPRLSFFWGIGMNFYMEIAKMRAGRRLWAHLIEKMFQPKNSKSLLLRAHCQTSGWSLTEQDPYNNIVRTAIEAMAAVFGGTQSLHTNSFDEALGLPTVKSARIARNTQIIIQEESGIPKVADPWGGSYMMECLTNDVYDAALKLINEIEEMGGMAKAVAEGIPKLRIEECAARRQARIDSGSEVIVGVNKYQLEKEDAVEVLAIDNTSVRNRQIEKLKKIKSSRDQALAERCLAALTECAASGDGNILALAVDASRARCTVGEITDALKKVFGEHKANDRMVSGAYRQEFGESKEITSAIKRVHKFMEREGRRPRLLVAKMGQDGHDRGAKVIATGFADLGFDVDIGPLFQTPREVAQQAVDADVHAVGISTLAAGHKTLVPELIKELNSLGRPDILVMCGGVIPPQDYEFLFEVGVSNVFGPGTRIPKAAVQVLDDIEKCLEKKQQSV
UniProt Q7L1V2: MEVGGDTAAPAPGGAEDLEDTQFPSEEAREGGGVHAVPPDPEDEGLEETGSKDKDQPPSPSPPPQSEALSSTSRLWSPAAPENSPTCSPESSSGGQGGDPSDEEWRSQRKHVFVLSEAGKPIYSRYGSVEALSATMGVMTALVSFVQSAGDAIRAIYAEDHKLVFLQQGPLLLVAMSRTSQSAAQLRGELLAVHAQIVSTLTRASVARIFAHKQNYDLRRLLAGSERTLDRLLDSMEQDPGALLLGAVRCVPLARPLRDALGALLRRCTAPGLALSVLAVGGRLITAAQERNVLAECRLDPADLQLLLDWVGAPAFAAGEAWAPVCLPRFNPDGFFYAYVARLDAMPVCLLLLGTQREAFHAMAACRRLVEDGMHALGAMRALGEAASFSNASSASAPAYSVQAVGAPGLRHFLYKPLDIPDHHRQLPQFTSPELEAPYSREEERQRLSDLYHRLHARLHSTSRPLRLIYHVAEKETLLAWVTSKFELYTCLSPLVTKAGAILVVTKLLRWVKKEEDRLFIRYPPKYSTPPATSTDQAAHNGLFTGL

Tests used:
Assay in all cases: log2 fold change, soluble protein after heating vs DMSO (PISA); higher = thermal stabilisation; K562 lysate, 10 uM; active = over 0.2 and 3.5 SD of the protein, either way, in both replicates (recomputed)
alvocidib = compound: CN1CC[C@H](c2c(O)cc(O)c3c(=O)cc(-c4ccccc4Cl)oc23)[C@H](O)C1 [alvocidib]
Method in brief: (§1)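 Following dounce homogenisation of K562 pellets in PBS pH 7.4 with 1 mM MgCl2, crude extract at 1 mg/mL protein was incubated for 30 min with 10 μM compound. Aliquots were then heated for 3 min over 48°C-58°C and pooled, NP-40 was added to 0.5% at 4°C, and soluble protein was recovered as the supernatant at 21,000xg for 90 min. Channel-sum-equalised TMTpro 16plex LC-MS/MS quantified this protein. Each value, from duplicates, is a log-two fold change in thermal stability relative to solvent controls.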

Tubastatin A = compound: CN1CCc2c(c3ccccc3n2Cc2ccc(C(=O)NO)cc2)C1 [Tubastatin A]
Method in brief: as §1

[1] = compound: CNC(=O)C1=CC=CC=C1NC2=NC(=NC=C2Cl)NC3=C(C=C(C=C3)N4CCOCC4)OC
Method in brief: as §1

defactinib = compound: CNC(=O)c1ccc(Nc2ncc(C(F)(F)F)c(NCc3nccnc3N(C)S(C)(=O)=O)n2)cc1 [defactinib]
Method in brief: as §1

[2] = compound: CNc1nc(-c2ccc3c(N)n[nH]c3c2)cc(N2C[C@@H](C(=O)NC3CCCCC3)CC[C@H]2C)n1
Method in brief: as §1

encorafenib = compound: COC(=O)N[C@@H](C)CNc1nccc(-c2cn(C(C)C)nc2-c2cc(Cl)cc(NS(C)(=O)=O)c2F)n1 [encorafenib]
Method in brief: as §1

[3] = compound: COC(=O)[C@H](CCSC)NC(=O)C1=C(C=C(C=C1)NC[C@H](CS)N)C2=CC=CC=C2
Method in brief: as §1

alisertib = compound: COc1cc(Nc2ncc3c(n2)-c2ccc(Cl)cc2C(c2c(F)cccc2OC)=NC3)ccc1C(=O)O [alisertib]
Method in brief: as §1

gefitinib = compound: COc1cc2ncnc(Nc3ccc(F)c(Cl)c3)c2cc1OCCCN1CCOCC1 [gefitinib]
Method in brief: as §1

[4] = compound: COc1cc2nc(-c3cc(F)ccc3O)nc(N[C@@H]3CNC[C@H]3C(C)(C)O)c2cc1OC
Method in brief: as §1

Target	log2 fold change (alvocidib)	log2 fold change (Tubastatin A)	log2 fold change [1]	log2 fold change (defactinib)	log2 fold change [2]	log2 fold change (encorafenib)	log2 fold change [3]	log2 fold change (alisertib)	log2 fold change (gefitinib)	log2 fold change [4]
MIER3 isoform 2 (UniProt Q7Z3K6)	inactive: -0.048	inactive: -0.119	inactive: 0.012	inactive: 0.006	inactive: -0.022	inactive: 0.057	inactive: 0.079	inactive: -0.143	inactive: -0.022	
MKI67 (UniProt P46013)	inactive: -0.041	inactive: -0.022	inactive: 0.027	inactive: -0.003	inactive: 0.028	inactive: 0.033	inactive: -0.013	inactive: 0.007	inactive: -0.002	inactive: 0.006
MPP1 (UniProt Q00013)	inactive: -0.01	inactive: -0.01	inactive: -0.007	inactive: -0.002	inactive: 0.01	inactive: -0.015	inactive: 0.011	inactive: -0.008	inactive: 0	inactive: -0.007
MPC1 (UniProt Q9Y5U8)	inactive: 0.178	inactive: 0.055	inactive: 0	inactive: 0.05	inactive: 0.103	inactive: 0.019	inactive: 0.071			inactive: -0.006
MLLT11 (UniProt Q13015)	inactive: 0.056	inactive: -0.052	inactive: 0.108	inactive: 0.086	inactive: -0.019	inactive: 0.138	inactive: 0.099	inactive: 0.115	inactive: 0.023	inactive: 0.067
MITD1 (UniProt Q8WV92)	inactive: 0.021	inactive: 0.046	inactive: 0.044	inactive: -0.038	inactive: -0.026	inactive: -0.04	inactive: 0.143	inactive: 0.041	inactive: 0.022	inactive: 0.018
MRPL11 (UniProt Q9Y3B7)	inactive: 0.007	inactive: -0.104	inactive: 0.009	inactive: 0.023	inactive: 0.031	inactive: -0.011	inactive: 0.068	inactive: -0.019	inactive: -0.053	inactive: 0.018
MPV17 (UniProt P39210)	inactive: 0.011	inactive: -0.049	inactive: 0.203	inactive: 0.135	inactive: 0.042	inactive: -0.041	inactive: 0.007	inactive: -0.04	inactive: -0.014	inactive: 0.077
MICU1 isoform 3 (UniProt Q9BPX6)	inactive: 0.092	inactive: -0.065	inactive: 0	inactive: 0.026	inactive: -0.061	inactive: -0.037	inactive: -0.05	inactive: -0.025	inactive: 0.023	inactive: -0.063
MIS12 (UniProt Q9H081)	inactive: -0.014	inactive: -0.025	inactive: 0.079	inactive: 0.008	inactive: 0.05	inactive: -0.007	inactive: 0.122	inactive: -0.021	inactive: -0.078	inactive: 0.005
MGAT5 (UniProt Q09328)	inactive: 0.056	inactive: -0.009	inactive: -0.011	active: -0.337	inactive: -0.026	inactive: 0.006	inactive: -0.095	inactive: 0.025	inactive: -0.064	inactive: 0.054
MLF2 (UniProt Q15773)	inactive: 0	inactive: -0.002	inactive: 0.033	inactive: 0.038	inactive: -0.001	inactive: -0.07	inactive: -0.001	inactive: -0.011	inactive: -0.093	
MNT (UniProt Q99583)	inactive: 0.014	inactive: 0.023	inactive: -0.057	inactive: -0.002	inactive: 0.136	inactive: 0.007	inactive: -0.075			inactive: -0.001
MID1IP1 (UniProt Q9NPA3)	inactive: 0.04	inactive: -0.11	inactive: 0.064	inactive: 0.052	inactive: 0.029	inactive: 0.015	inactive: -0.071	inactive: 0.007	inactive: 0.012	
MMTAG2 (UniProt Q9BU76)	inactive: -0.001	inactive: -0.024	inactive: -0.036	inactive: 0.033	inactive: 0.049	inactive: 0.025	inactive: 0.017	inactive: 0.025	inactive: 0.021	inactive: -0.014
MOB4 (UniProt Q9Y3A3)	inactive: -0.027	inactive: 0.022	inactive: -0.013	inactive: 0.037	inactive: 0.031	inactive: 0.014	inactive: -0.096	inactive: -0.018	inactive: -0.024	inactive: -0.048

Shown in CSV form: part of the list above.
Target,log2 fold change (alvocidib),log2 fold change (Tubastatin A),log2 fold change [1],log2 fold change (defactinib),log2 fold change [2],log2 fold change (encorafenib),log2 fold change [3],log2 fold change (alisertib),log2 fold change (gefitinib),log2 fold change [4]
MKI67 (UniProt P46013),inactive: -0.041,inactive: -0.022,inactive: 0.027,inactive: -0.003,inactive: 0.028,inactive: 0.033,inactive: -0.013,inactive: 0.007,inactive: -0.002,inactive: 0.006
MPP1 (UniProt Q00013),inactive: -0.01,inactive: -0.01,inactive: -0.007,inactive: -0.002,inactive: 0.01,inactive: -0.015,inactive: 0.011,inactive: -0.008,inactive: 0,inactive: -0.007

(listing goes on)

Target	log2 fold change (alvocidib)	log2 fold change (Tubastatin A)	log2 fold change [1]	log2 fold change (defactinib)	log2 fold change [2]	log2 fold change (encorafenib)	log2 fold change [3]	log2 fold change (alisertib)	log2 fold change (gefitinib)	log2 fold change [4]
MOCS3 (UniProt O95396)	inactive: -0.213	inactive: -0.082	inactive: 0.111	inactive: -0.161	inactive: -0.008	inactive: 0.056	inactive: -0.094	inactive: 0.031	inactive: -0.231	
MGST3 (UniProt O14880)	inactive: 0.071	inactive: 0.043	inactive: 0.054	inactive: 0	inactive: 0.029	inactive: -0.04	inactive: 0.052	inactive: 0.026	inactive: -0.038	inactive: -0.005
MRI1 (UniProt Q9BV20)	inactive: -0.041	inactive: 0.016	inactive: 0.014	inactive: -0.002	inactive: 0.001	inactive: 0.001	inactive: -0.01	inactive: -0.024	inactive: -0.002	inactive: 0.027
MRPL23 (UniProt Q16540)	inactive: 0.043	inactive: -0.031	inactive: -0.058	inactive: 0.037	inactive: 0.077	inactive: -0.029	inactive: 0.057	inactive: 0.01	inactive: 0.07	inactive: 0.004
MRFAP1 (UniProt Q9Y605)	inactive: 0.081	inactive: -0.044	inactive: 0.051	inactive: -0.096	inactive: -0.016	inactive: 0.012	inactive: -0.056	inactive: 0.084	inactive: 0.026	inactive: -0.061
MIA3 (UniProt Q5JRA6)	inactive: -0.006	inactive: -0.076	inactive: 0.003	inactive: 0.001	inactive: -0.005	inactive: 0.038	inactive: -0.119	inactive: -0.014	inactive: 0.003	inactive: 0.057
MPP5 (UniProt Q8N3R9)	inactive: 0.066	inactive: -0.08	inactive: -0.051	inactive: 0.034	inactive: 0.045	inactive: 0.073	inactive: 0.114	inactive: -0.217	inactive: -0.139	
MMUT (UniProt P22033)	inactive: -0.023	inactive: 0.001	inactive: -0.012	inactive: -0.003	inactive: -0.038	inactive: 0.024	inactive: -0.04	inactive: 0.014	inactive: -0.005	inactive: 0.004
MRPL13 (UniProt Q9BYD1)	inactive: -0.005	inactive: -0.014	inactive: -0.031	inactive: -0.01	inactive: 0.012	inactive: 0.029	inactive: 0.081	inactive: -0.004	inactive: 0.025	inactive: 0.085
MON1B (UniProt Q7L1V2)	inactive: -0.023	inactive: 0.022	inactive: 0.054	inactive: -0.004	inactive: 0.015	inactive: 0.022	inactive: -0.1	inactive: 0.029	inactive: 0.017	inactive: 0.007
MGST2 (UniProt Q99735)	inactive: -0.162	inactive: 0.095	inactive: 0.025	inactive: 0.058	inactive: 0.108	inactive: -0.008	inactive: 0.031	inactive: -0.027	inactive: 0.033	inactive: -0.066
MIDEAS, A0A1C7CYX1		inactive: -0.362	inactive: 0.035		inactive: -0.02					inactive: 0.031
MIPOL1 (UniProt Q8TD10)	inactive: 0	inactive: -0.027	inactive: -0.025		inactive: 0.033	inactive: -0.049	inactive: 0.053			inactive: -0.005
MRPL2 (UniProt Q5T653)	inactive: -0.052	inactive: 0.047	inactive: -0.007	inactive: -0.125	inactive: 0.029			inactive: 0.043	inactive: -0.047	inactive: -0.009
MRE11 (UniProt F8W7U8)										inactive: 0.012
